Article PMC5608510
No constants are given. Whether binding was seen depends on the method and setting. In cells and extracts the contact can be indirect. A yes stands for co-enrichment or nearness to the bait. Other partners may have been found.

Chains of the proteins cited; added tags and fusions are not shown.
UniProt Q9BQA1: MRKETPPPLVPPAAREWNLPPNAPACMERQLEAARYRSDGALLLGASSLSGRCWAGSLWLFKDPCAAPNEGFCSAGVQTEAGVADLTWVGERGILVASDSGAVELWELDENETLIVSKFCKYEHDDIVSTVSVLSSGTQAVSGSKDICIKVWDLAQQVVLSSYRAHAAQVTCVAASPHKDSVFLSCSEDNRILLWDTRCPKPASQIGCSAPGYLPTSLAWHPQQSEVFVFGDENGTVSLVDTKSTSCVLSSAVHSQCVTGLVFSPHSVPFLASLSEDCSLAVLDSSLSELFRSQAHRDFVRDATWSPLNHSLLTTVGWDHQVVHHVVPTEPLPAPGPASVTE
UniProt P31947: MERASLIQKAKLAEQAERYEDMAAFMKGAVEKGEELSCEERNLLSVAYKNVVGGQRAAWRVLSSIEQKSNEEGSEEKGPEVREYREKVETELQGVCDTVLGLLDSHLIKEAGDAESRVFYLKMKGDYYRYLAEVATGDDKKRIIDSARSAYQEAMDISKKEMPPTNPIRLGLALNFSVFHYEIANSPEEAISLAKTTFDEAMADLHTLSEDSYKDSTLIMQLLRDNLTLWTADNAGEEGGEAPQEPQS

Target: WDR77 (human (endogenous in LNCaP and VCaP)) (UniProt Q9BQA1)
Assay: affinity purification with mass spectrometry; nuclear extracts of LNCaP cells after 16 hr of R1881 (5 nM) or vehicle, immunoprecipitated with p53 or WDR77 antibodies, gel bands digested with trypsin, LC-MS

binding: binds
Substance: 14-3-3 sigma (from UniProt P31947 1-248)
